Values from PubChem BioAssay AID602196 (INSERM, 2012).
Here is an unselected part of about 23,000 deposited reagents. 455 of all reagents (2%) count as active. 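Active includes both protection and sensitisation; some change values fall well beyond the stated -50 to +50 range.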 Entries without a mark were called inactive. Reagent sequences are not shown. The record does not give: the amount of reagent.

- Aim: 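Knock-downs that protect lung cancer cells from cisplatin or sensitise them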
- System: human A549 lung cancer cells
- Reagents: siRNA pair against human genes
- Time to read-out: 48 h transfection before cisplatin; time from cisplatin to read-out not stated
- Challenge: cisplatin at a dose killing half of control-siRNA cells; exact dose and duration not given
- Measured: 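Cisplatin cell death as a shift from the 50% death seen with control siRNA; siRNAs toxic or growth-blocking alone scored 0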
- Scale: two-siRNA summed score (-2 to +2): higher = both siRNAs protect from cisplatin killing; -2 means both sensitise; mean protection from cisplatin (shift in death) and protection from cisplatin (shift in death), siRNA C and protection from cisplatin (shift in death), siRNA D: higher = protection from cisplatin killing
- Active means: 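Each siRNA scores 0 if harmful alone by LDH or WST-1, otherwise +1 if it reduces and -1 if it increases cisplatin killing; a gene is active when both siRNAs agree (sum +2 or -2)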
- Meaning of the calls: active = both siRNAs shift cisplatin killing the same way; inactive = no consistent shift, or siRNA harmful alone

no.	target gene	two-siRNA summed score (-2 to +2)	mean protection from cisplatin (shift in death) (%)	protection from cisplatin (shift in death), siRNA C (%)	protection from cisplatin (shift in death), siRNA D (%)
1	GCNT1 (glucosaminyl (N-acetyl) transferase 1)	-1	-2.6	5.5	-10.8
2	BPIFB2 (BPI fold containing family B member 2)	0	21.8	6.1	37.6
3	LOC339771	0	7.3	0.7	13.8
4	KCNS3	0	0.5	1.1	-0.1
5	CR2 (complement C3d receptor 2)	1	20.7	30.3	11.1
6	KCNH1 (potassium voltage-gated channel subfamily H member 1)	0	-2.8	-7.2	1.6
7	LOC389618	0	23.1	26.9	19.4
8	HS3ST6 (heparan sulfate-glucosamine 3-sulfotransferase 6)	0	5.8	5.8	5.7
9	TH (tyrosine hydroxylase)	0	5.5	2.1	8.9
10	PCDH18 (protocadherin 18)	0	-14.7	-13.6	-15.8
11	BACE1 (beta-secretase 1)	0	-7.2	-6	-8.5
12	B4GALT2 (beta-1,4-galactosyltransferase 2)	0	-5.4	5.1	-16
13	TMEM81 (transmembrane protein 81)	0	24.6	37.2	11.9
14	GEMIN4 (gem nuclear organelle associated protein 4)	0	21.3	25.6	17
15	SH3D19 (SH3 domain containing 19)	0	1.1	-8.6	10.9
16	LOC401016	0	2.8	6.6	-1
17	NEUROG2 (neurogenin 2)	0	6.2	12.5	-0.1
18	ACSS3 (acyl-CoA synthetase short chain family member 3)	0	0	-0.1	0.1
19	MICB (MHC class I polypeptide-related sequence B)	-1	-11.3	-2.6	-20
20	CCDC138 (coiled-coil domain containing 138)	0	7.9	25.5	-9.7
21	LOC388010	0	9.1	18.5	-0.4
22	KRT6A (keratin 6A)	1	15.9	8.2	23.5
23	FPR2 (formyl peptide receptor 2)	0	5.5	7.7	3.4
24	H2AJ (H2A.J histone)	0	15.3	20.5	10
25	ZNF680 (zinc finger protein 680)	1	14.3	21	7.7
26	EGR2 (early growth response 2)	0	-5.9	-4.5	-7.2
27	ABHD11 (abhydrolase domain containing 11)	0	19.5	15.1	23.8
28	NCOA2 (nuclear receptor coactivator 2)	-2 (active)	-18.1	-16.2	-20.1
29	TNS4 (tensin 4)	0	-4.9	-9.6	-0.1
30	MKNK1 (MAPK interacting serine/threonine kinase 1)	2 (active)	20.1	29.3	11

Quoted from the entries so far (12 entries):
no.	target gene	two-siRNA summed score (-2 to +2)	mean protection from cisplatin (shift in death) (%)	protection from cisplatin (shift in death), siRNA C (%)	protection from cisplatin (shift in death), siRNA D (%)
18	ACSS3 (acyl-CoA synthetase short chain family member 3)	0	0	-0.1	0.1
19	MICB (MHC class I polypeptide-related sequence B)	-1	-11.3	-2.6	-20
20	CCDC138 (coiled-coil domain containing 138)	0	7.9	25.5	-9.7
21	LOC388010	0	9.1	18.5	-0.4
22	KRT6A (keratin 6A)	1	15.9	8.2	23.5
23	FPR2 (formyl peptide receptor 2)	0	5.5	7.7	3.4
24	H2AJ (H2A.J histone)	0	15.3	20.5	10
25	ZNF680 (zinc finger protein 680)	1	14.3	21	7.7
26	EGR2 (early growth response 2)	0	-5.9	-4.5	-7.2
27	ABHD11 (abhydrolase domain containing 11)	0	19.5	15.1	23.8
28	NCOA2 (nuclear receptor coactivator 2)	-2 (active)	-18.1	-16.2	-20.1
29	TNS4 (tensin 4)	0	-4.9	-9.6	-0.1

The list goes on.
no.	target gene	two-siRNA summed score (-2 to +2)	mean protection from cisplatin (shift in death) (%)	protection from cisplatin (shift in death), siRNA C (%)	protection from cisplatin (shift in death), siRNA D (%)
31	CTSV (cathepsin V)	0	1.9	2.9	0.8
32	GD:PTPRD	0	29.8	29.3	30.2
33	UNC5C (unc-5 netrin receptor C)	0	-6.7	-3	-10.4
34	PDAP1P3 (PDAP1 pseudogene 3)	0	-3.7	-9	1.7
35	LOC441118	1	8.6	-2.9	20.1
36	FAM43A (family with sequence similarity 43 member A)	0	7.9	4.7	11.1
37	LOC283400	0	6.3	9.4	3.2
38	LOC401740	0	0.4	0.2	0.7
39	LINC00479 (long independently transcribed non-coding RNA 479)	0	-1.1	2.4	-4.7
40	MCMBP (minichromosome maintenance complex binding protein)	0	8.2	17	-0.5
41	LOC441161	1	11.5	4.1	18.8
42	IL33 (interleukin 33)	0	5.3	0.2	10.4
43	LINC03066 (long independently transcribed non-coding RNA 3066)	0	27.8	7.4	48.1
44	CCDC88A (coiled-coil and HOOK domain protein 88A)	0	1.7	15.3	-11.8
45	OR1I1 (olfactory receptor family 1 subfamily I member 1)	0	10.3	11.1	9.4
46	LOC392447	1	19.5	10.1	28.9
47	LOC127003	0	22.9	26.4	19.3
48	LOC389983	0	25.2	31.9	18.5
49	RABGGTB (Rab geranylgeranyltransferase subunit beta)	0	1.2	6.7	-4.4
50	LOC102725228	1	17.7	11.8	23.6
51	TTLL10 (tubulin tyrosine ligase like 10)	0	11	7.7	14.4
52	HSPA1A (heat shock protein family A (Hsp70) member 1A)	0	11	17.6	4.3
53	HP1BP3 (heterochromatin protein 1 binding protein 3)	0	4.4	9	-0.1
54	PTPN5 (protein tyrosine phosphatase non-receptor type 5)	1	4.8	18.2	-8.5
55	LBR (lamin B receptor)	0	15.4	14.5	16.2
56	CCNA1 (cyclin A1)	0	-6.8	-9.8	-3.7
57	KCNH5 (potassium voltage-gated channel subfamily H member 5)	0	4.7	5.6	3.8
58	PIGL (phosphatidylinositol glycan anchor biosynthesis class L)	0	9.5	10.2	8.7
59	NT5C (5', 3'-nucleotidase, cytosolic)	0	4.9	13.8	-3.9
60	SFMBT1 (Scm like with four mbt domains 1)	0	1.2	-0.9	3.2
61	ZNF827 (zinc finger protein 827)	0	-1.2	3.6	-6
62	PLIN1 (perilipin 1)	0	9.2	4.4	14.1
63	LOC400969	0	10.7	10	11.4
64	CCDC68 (coiled-coil domain containing 68)	0	-0.5	-4.5	3.4
65	TSPEAR-AS2 (TSPEAR antisense RNA 2)	0	-1.5	-1.4	-1.6
66	NLRC5 (NLR family CARD domain containing 5)	0	20.9	18.6	23.2
67	ICAM4	0	24.1	7.4	40.7
68	XBP1 (X-box binding protein 1)	0	6.2	3.7	8.6
69	LCE3C (late cornified envelope 3C)	0	4.5	9.5	-0.5
70	GALK2 (galactokinase 2)	0	10.5	15.9	5.2
71	MEX3B (mex-3 RNA binding family member B)	0	-1.1	-3.3	1.1
72	LOC283677	0	3.1	9.4	-3.3
73	DCUN1D1 (defective in cullin neddylation 1 domain containing 1)	0	1.6	2.1	1.2
